# In PMC9684443:
# Sequences of proteins named here, by UniProt entry; tags and fusion partners are left off.
# UniProt Q8TAQ2: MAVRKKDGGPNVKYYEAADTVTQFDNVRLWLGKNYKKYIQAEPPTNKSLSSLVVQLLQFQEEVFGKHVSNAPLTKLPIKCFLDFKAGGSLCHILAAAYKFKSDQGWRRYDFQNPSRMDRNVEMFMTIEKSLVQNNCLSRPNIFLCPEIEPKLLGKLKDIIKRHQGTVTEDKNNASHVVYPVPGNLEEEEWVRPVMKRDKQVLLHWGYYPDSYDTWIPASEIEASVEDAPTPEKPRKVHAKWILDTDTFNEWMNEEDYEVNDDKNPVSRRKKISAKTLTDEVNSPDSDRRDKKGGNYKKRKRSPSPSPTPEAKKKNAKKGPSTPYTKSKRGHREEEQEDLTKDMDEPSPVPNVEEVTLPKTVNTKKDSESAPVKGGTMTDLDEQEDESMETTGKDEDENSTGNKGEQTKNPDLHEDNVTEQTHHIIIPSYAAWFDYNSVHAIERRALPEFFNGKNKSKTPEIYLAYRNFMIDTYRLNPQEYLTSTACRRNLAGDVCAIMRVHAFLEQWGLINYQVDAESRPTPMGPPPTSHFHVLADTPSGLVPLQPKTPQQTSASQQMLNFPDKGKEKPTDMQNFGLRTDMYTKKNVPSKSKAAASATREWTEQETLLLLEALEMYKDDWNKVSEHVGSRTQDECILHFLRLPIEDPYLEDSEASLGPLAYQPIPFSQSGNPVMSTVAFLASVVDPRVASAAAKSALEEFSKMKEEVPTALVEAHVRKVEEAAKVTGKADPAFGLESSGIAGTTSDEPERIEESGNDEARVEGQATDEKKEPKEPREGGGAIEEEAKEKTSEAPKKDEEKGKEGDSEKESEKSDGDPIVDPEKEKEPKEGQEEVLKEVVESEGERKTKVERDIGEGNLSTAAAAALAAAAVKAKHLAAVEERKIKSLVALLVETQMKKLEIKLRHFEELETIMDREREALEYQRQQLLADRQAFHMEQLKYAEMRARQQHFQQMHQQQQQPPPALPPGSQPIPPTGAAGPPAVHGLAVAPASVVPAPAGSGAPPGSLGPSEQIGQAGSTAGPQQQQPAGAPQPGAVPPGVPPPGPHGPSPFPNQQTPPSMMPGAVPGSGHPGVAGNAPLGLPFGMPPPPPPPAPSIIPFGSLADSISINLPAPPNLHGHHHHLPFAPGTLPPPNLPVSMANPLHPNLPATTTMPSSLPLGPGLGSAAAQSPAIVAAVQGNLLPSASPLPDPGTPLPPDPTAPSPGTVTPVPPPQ
# UniProt P51532: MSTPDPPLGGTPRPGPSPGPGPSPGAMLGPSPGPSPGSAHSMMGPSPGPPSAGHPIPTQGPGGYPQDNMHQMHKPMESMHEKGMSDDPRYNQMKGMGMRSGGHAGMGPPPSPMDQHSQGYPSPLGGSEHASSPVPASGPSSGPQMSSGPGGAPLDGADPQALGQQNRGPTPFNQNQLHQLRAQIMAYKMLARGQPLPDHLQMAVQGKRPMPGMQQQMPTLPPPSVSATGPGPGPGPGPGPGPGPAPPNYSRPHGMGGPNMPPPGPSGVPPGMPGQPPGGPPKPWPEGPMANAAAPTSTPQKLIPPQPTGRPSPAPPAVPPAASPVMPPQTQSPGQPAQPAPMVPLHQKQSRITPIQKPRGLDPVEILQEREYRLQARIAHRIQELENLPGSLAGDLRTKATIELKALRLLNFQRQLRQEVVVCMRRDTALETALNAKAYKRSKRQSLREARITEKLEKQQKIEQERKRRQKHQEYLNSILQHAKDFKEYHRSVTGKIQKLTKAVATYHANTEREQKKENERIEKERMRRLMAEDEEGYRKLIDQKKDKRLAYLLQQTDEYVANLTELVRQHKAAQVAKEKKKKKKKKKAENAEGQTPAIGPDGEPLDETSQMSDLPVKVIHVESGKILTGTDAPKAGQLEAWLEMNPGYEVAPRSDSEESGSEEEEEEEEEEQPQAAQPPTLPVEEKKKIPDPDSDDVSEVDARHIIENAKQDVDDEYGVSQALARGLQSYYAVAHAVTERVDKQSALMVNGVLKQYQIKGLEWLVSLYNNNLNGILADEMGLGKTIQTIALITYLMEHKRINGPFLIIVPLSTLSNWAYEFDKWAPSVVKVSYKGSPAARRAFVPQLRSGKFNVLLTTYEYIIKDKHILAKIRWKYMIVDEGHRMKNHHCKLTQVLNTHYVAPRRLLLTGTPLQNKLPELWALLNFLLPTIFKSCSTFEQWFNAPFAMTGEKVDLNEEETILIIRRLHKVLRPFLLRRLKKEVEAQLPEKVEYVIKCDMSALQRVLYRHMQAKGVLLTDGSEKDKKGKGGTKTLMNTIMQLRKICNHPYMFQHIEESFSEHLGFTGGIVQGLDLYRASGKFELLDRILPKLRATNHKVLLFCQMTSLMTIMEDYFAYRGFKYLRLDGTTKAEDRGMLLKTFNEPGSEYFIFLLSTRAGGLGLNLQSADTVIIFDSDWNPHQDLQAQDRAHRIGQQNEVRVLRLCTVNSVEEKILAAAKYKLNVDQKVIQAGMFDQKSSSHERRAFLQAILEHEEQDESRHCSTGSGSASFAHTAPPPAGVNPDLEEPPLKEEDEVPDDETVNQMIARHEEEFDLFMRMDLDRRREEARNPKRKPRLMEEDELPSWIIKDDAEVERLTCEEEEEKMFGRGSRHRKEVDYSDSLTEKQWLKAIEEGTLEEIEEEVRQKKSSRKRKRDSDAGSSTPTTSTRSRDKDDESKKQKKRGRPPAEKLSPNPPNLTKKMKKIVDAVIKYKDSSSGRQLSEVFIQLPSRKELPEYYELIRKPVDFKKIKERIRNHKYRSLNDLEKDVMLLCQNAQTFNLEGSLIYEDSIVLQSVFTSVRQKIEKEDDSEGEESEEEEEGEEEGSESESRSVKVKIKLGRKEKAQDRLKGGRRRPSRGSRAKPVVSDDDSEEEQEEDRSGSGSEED
# Results are given in words; binding and its absence hold for the method and conditions named. Binding seen in cells or lysates may run through a third protein. Some binding calls cover weakened binding; strength is not graded here.
# Target: SMARCC2 (human (endogenous in U118MG)) (UniProt Q8TAQ2)
# Test: co-IP; immunoprecipitation of SMARCC2 from nuclear extracts of U118MG cells (with CRISPR-Cas9 knockout of SMARCC2), immunoblotting for SMARCB1, SMARCC1, SMARCA4
substance,measurement,value
SMARCA4 (from UniProt P51532 1-1647),binding,binds
